Source: PubChem BioAssay AID1053208 (Peter MacCallum Cancer Centre, 2014)

Aim: 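Genes whose silencing cuts survival of bone tumour cells only with doxorubicin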 (primary screen)
Cell system: mouse osteosarcoma cells, early-passage culture from an engineered mouse model of fibroblastic bone tumour
Reagents: siRNA pool against mouse genes, 40 nM
Time to read-out: about 120 h (48 h before drug, then 72 h with drug)
Treatment: doxorubicin 100 nM for 72 h, roughly 30-40% inhibitory dose
Measured: 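Viability read as ATP luminescence after 72 h of 100 nM doxorubicin or none, duplicate wells averaged, scaled to non-targeting siRNA, then expressed as robust z-scores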
Reading the numbers: viability z-score with doxorubicin and doxorubicin viability vs non-targeting: higher = more viable cells under doxorubicin; viability z-score without drug: higher = more viable cells with knock-down alone; z-score of drug to no-drug ratio: higher = less drug sensitisation by knock-down
Hit rule: 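Called active if knock-down leaves viability unchanged without drug (z within -2 to 2) but lowers it with doxorubicin (z at or under -2)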
Here is one part, drawn at random, of about 17,000 reagents tested. 788 of all reagents (4.7%) count as active. 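Calls rest on z-score classes alone; an extra cut-off of viability at most 70% of control was not applied to them.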

| target gene | combined z-score class | viability z-score with doxorubicin | viability z-score without drug | z-score of drug to no-drug ratio | doxorubicin viability vs non-targeting | Call |
| --- | --- | --- | --- | --- | --- | --- |
| Psma5 (proteasome subunit alpha 5) | low cell count with and without drug | -4.95 | -5.23 | -2.25 | 0.5 | inactive |
| Sntg1 (syntrophin, gamma 1) | no change with or without drug | 1.12 | 0.51 | 0.9 | 1.04 | inactive |
| Stx5a (syntaxin 5A) | no change with or without drug | -0.67 | -0.84 | 0 | 0.88 | inactive |
| L3hypdh (L-3-hydroxyproline dehydratase (trans-)) | no change with or without drug | -0.45 | -1.52 | 0.79 | 0.9 | inactive |
| D030022P06RIK | no change with or without drug | 0.45 | 0 | 0.56 | 0.98 | inactive |
| Flnc (filamin C, gamma) | no change with or without drug | 0.22 | 0.51 | 0 | 0.96 | inactive |
| BC048671 (cDNA sequence BC048671) | no change with or without drug | 0.9 | 0.17 | 0.9 | 1.02 | inactive |
| Rhbdl2 (rhomboid like 2) | no change with or without drug | 1.57 | 0.51 | 1.35 | 1.08 | inactive |
| Arg1 (arginase, liver) | no change with or without drug | -0.34 | 0.34 | -0.45 | 0.91 | inactive |
| Tut7 (terminal uridylyl transferase 7) | no change with or without drug | 1.69 | 1.52 | 0.79 | 1.09 | inactive |
| Il1r1 (interleukin 1 receptor, type I) | low cell count with doxorubicin only | -3.15 | -1.35 | -2.47 | 0.66 | active |
| Mri1 (methylthioribose-1-phosphate isomerase 1) | no change with or without drug | -1.46 | 0.51 | -1.69 | 0.81 | inactive |
| Mok (MOK protein kinase) | no change with or without drug | -0.11 | -1.18 | 0.9 | 0.93 | inactive |
| Lair1 (leukocyte-associated Ig-like receptor 1) | high cell count without drug only | 0.22 | 2.36 | -1.12 | 0.96 | inactive |
| Shroom2 (shroom family member 2) | low cell count with doxorubicin only | -2.25 | -0.34 | -2.02 | 0.74 | active |
| Tspan13 (tetraspanin 13) | high cell count without drug only | 0 | 2.53 | -1.46 | 0.94 | inactive |
| Cyp2d26 (cytochrome P450, family 2, subfamily d, polypeptide 26) | no change with or without drug | 0.34 | 0.67 | 0 | 0.97 | inactive |
| Plet1 (placenta expressed transcript 1) | no change with or without drug | 1.46 | 0.84 | 1.01 | 1.07 | inactive |
| Rbpms2 (RNA binding protein with multiple splicing 2) | no change with or without drug | -1.35 | 0.17 | -1.46 | 0.82 | inactive |
| Caln1 (calneuron 1) | no change with or without drug | 0.67 | -0.17 | 0.9 | 1 | inactive |
| Cd40lg (CD40 ligand) | no change with or without drug | 0.45 | 1.18 | -0.22 | 0.98 | inactive |
| Cpxm1 (carboxypeptidase X, M14 family member 1) | no change with or without drug | 1.12 | 0.84 | 0.67 | 1.04 | inactive |
| Ggt6 (gamma-glutamyltransferase 6) | no change with or without drug | 0.67 | 0.84 | 0.22 | 1 | inactive |
| Sprr1a (small proline-rich protein 1A) | no change with or without drug | 0.9 | 0 | 1.01 | 1.02 | inactive |
| Haus1 (HAUS augmin-like complex, subunit 1) | no change with or without drug | -0.67 | -1.01 | 0.11 | 0.88 | inactive |
| Ccdc93 (coiled-coil domain containing 93) | no change with or without drug | 0.45 | -1.85 | 2.14 | 0.98 | inactive |
| Zfp764l1 (zinc finger protein 764 like 1) | no change with or without drug | 0.22 | 1.52 | -0.67 | 0.96 | inactive |
| Pcolce (procollagen C-endopeptidase enhancer protein) | high cell count without drug only | 0.9 | 2.36 | -0.45 | 1.02 | inactive |
| Jph1 (junctophilin 1) | no change with or without drug | -1.12 | -0.17 | -1.01 | 0.84 | inactive |
| Antxrl (anthrax toxin receptor-like) | no change with or without drug | 0.11 | 0.51 | -0.11 | 0.95 | inactive |
| Ranbp9 (RAN binding protein 9) | no change with or without drug | 0.11 | -0.34 | 0.45 | 0.95 | inactive |
| Tas2r135 (taste receptor, type 2, member 135) | no change with or without drug | -0.22 | -0.51 | 0.22 | 0.92 | inactive |
| Cdc25b (cell division cycle 25B) | no change with or without drug | 0.45 | -0.51 | 1.01 | 0.98 | inactive |
| Abcc8 (ATP-binding cassette, sub-family C member 8) | no change with or without drug | -1.35 | 0 | -1.35 | 0.82 | inactive |

Entries listed so far whose gene name starts with P or p (3):
| target gene | combined z-score class | viability z-score with doxorubicin | viability z-score without drug | z-score of drug to no-drug ratio | doxorubicin viability vs non-targeting | Call |
| --- | --- | --- | --- | --- | --- | --- |
| Psma5 (proteasome subunit alpha 5) | low cell count with and without drug | -4.95 | -5.23 | -2.25 | 0.5 | inactive |
| Plet1 (placenta expressed transcript 1) | no change with or without drug | 1.46 | 0.84 | 1.01 | 1.07 | inactive |
| Pcolce (procollagen C-endopeptidase enhancer protein) | high cell count without drug only | 0.9 | 2.36 | -0.45 | 1.02 | inactive |
